According to patent US20180112002A1 (University of California, published 2018):

Assays:
Assay in all cases: fluorescence confocal microscopy, MEC1 transfectants
[1] = target: ROR1 lacking the extracellular KNG domain
[2] = target: ΔCRD-ROR1
[3] = target: ΔPRD-ROR1

Measured: binding

B1: ARHGEF6 protein (Rho guanine nucleotide exchange factor 6) (other)
chain: MNPEEQIVTWLISLGVLESPKKTICDPEEFLKSSLKNGVVLCKLINRLMPGSVEKFCLDPQTEADCINNINDFLKGCATLQVEIFDPDDLYSGVNFSKVLSTLLAVNKATEDQLSERPCGRSSSLSAANTSQTNPQGAVSSTVSGLQRQSKTVEMTENGSHQLIVKARFNFKQTNEDELSVCKGDIIYVTRVEEGGWWEGTLNGRTGWFPSNYVREIKSSERPLSPKAVKGFETAPLTKNYYTVVLQNILDTEKEYAKELQSLLVTYLRPLQSNNNLSTVEVTSLLGNFEEVCTFQQTLCQALEECSKFPENQHKVGGCLLSLMPHFKSMYLAYCANHPSAVNVLTQHSDELEQFMENQGASSPGILILTTNLSKPFMRLEKYVTLLQELERHMEDTHPDHQDILKAIVAFKTLMGQCQDLRKRKQLELQILSEPIQAWEGEDIKNLGNVIFMSQVMVQYGACEEKEERYLMLFSNVLIMLSASPRMSGFIYQGKIPIAGTVVTRLDEIEGNDCTFEITGNTVERIVVHCNNNQDFQEWLEQLNRLIRGPASCSSLSKTSSSSCSAHSSFSSTGQPRGPLEPPQIIKPWSLSCLRPAPPLRPSAALGYKERMSYILKESSKSPKTMKKFLHKRKTERKPSEEEYVIRKSTAALEEDAQILKVIEAYCTSANFQQGHGSSTRKDSIPQVLLPEEEKLIIEETRSNGQTIMEEKSLVDTVYALKDEVRELKQENKRMKQCLEEELKSRRDLEKLVRRLLKQTDECIRGESSSKTSILP
notes: Endogenous protein of CLL and MEC1 cells
no binding: all assays above

Results are given in words; binding and its absence hold for the method and conditions named.
